Laboratory results published in patent publication EP4644419A1.
Where a chain is given by its changes, count along the chain named. No constants are given. Whether binding was seen depends on the method and setting. Binding can be weak; no strength is given.

The chains behind the UniProt entries cited, without tags or fusion partners. Where a name states a change or a piece, a line headed by the entry shows the natural chain unless it says otherwise.
UniProt Q6DKI7: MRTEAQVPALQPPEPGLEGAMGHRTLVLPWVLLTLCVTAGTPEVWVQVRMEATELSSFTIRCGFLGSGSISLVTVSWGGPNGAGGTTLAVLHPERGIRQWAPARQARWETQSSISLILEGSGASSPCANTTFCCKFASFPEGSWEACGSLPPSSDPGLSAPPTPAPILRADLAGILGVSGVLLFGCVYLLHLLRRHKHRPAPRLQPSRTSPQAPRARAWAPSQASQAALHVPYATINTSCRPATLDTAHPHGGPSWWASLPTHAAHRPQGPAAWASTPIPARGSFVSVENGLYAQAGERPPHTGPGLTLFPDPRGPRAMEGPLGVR

B1: C14 (antibody, human IgG1, kappa, V domains shown)
VH: QVQLQQPGAELVRPGTSVKLSCKASGNTFTSYWMHWVKQRPGQGHEWIGVIDASDSNTKYNQKFKGKATLTVDTSSSTAYMQLSSLTSEDSAVYYCARYYSGSSYGLDYWGQGTTLTVSS
VL: DIQMTQTASSLSASLGDRVTISCRASQDISNYLNWYQQKPDGTVKLLIYYTSRLHSGVPSRFSGSGSGTDFSLTITHLEQEDIASYFCQQGNMFPPTFGGGTKLEIKR
B2: C9 (antibody, human IgG1, kappa, V domains shown)
VH: EVQLQQSGAELVKPGASVKLSCTASGFNIKDIYMHWLKQRPEQGLEWIGRIDPTNGNSEYDPRFRGKATLTADTSSNIAYLQLSSLTSEDTAVYYCARFGIYPYFDYWGQGTTLTVSS
VL: GIVMTQTPKFLLVSAGDRVTITCKASQSVNKAVVWYQQKPGQSPKLLISYASNRYTGVPDRFTGSGYGTDFTFSISTVQAEDLAVYFCQQDYSSPWTFGGGTKLEIKR
B3: C24 (antibody, human IgG1, kappa, V domains shown)
VH: QVQLKQSGPGLVQPSQNLSITCTVSGFSLTGYGINWVRQSPGKGLEWLGVIWSGGNTEYNAAFRSRLSISKDTSKSQVFLKMNSLQADDTAIYSCARDSTGLYAMDYWGPGTSVTVSS
VL: DLQMTQTTSSLSASLGDRVTISCRTSQDISNFLNWYQQKPDGPLKLLIYYTSRLHSGVPSRFSGSGSGTDYSLTISNLEQEDIATYFCQQGYMLPPTFGGGTKLEIKR
B4: C11 (antibody, human IgG1, kappa, V domains shown)
VH: EVQLQQSGPELVKPGASVKISCKASGYTFTDYFMNWVRQSHGKSLEWIGDIHPNNGSPNYNQKFKGKATLTVGKSSSTAYMELRSLTSEDSAVYYCATGYFDVWGTGTTVTVSS
VL: DIVMTQSPSSLSVSAGEKVTMSCKSSQSLLNSGNQKNYLAWYQQKPGQPPKLLIYGASTRESGVPDRFTGSGSGTDFTLTISSVQAEDLAVYYCQNDHSYPWTFGGGTKLEIKR
B5: C13 (antibody, human IgG1, kappa, V domains shown)
VH: B4 VH with R38K, H52N, K67R, G73D, T98S
VL: B4 VL with N34T
B6: C8 (antibody, human IgG1, kappa, V domains shown)
VH: EVQLVASGGGLVKPGGSLKLSCAASGFTFSDYYMFWVRQTPEKRLEWVATISDGGGYIYYPDSVKGRFTISRDNDRNSLYLQMSSLKSEDTAIYYCGREDFWGQGTSVTVSS
VL: DIQMTQSPSSLSASLGERVSLTCRASQDIGRSLNWLQQEPDGSVRRLIYATSRLDSGVPKRFSGSRSGSDYSLTISSLESEDFVDYYCLQYASFPYTFGGGTKLEIKR
B7: C12 (antibody, human IgG1, kappa, V domains shown)
VH: B6 VH with F35Y, I58T, I93M, F101L
VL: B6 VL with R31S, S43T, R45K
B8: C31 (antibody, human IgG1, kappa, V domains shown)
VH: QIQLQQSGPELVKPGASVKISCKASGYTFTDYYIAWVKQRPGQGLEWIGWIYLGSGHTMYNENFKGKATLTVDTSSSTAYMQLSSLTSEDSAVYFCARDSFYAMDYWGQGTSVTVSS
VL: DIVMTQSQKFMSTTVGDRVSITCKASQNVGTAVAWYQQKPGQSPKLLIYSASNRYTGVPDRFTGSGSGTDFTLTISNMQSEDLADYFCQQYSTYLTFGAGTKLELKR

Target: monkey antigen protein (monkey CD112R, Uniprot ID: A0A2K5WVV8) (monkey)
Experiment: ELISA, monkey antigen protein

binding	Binder
binds	B1
binds	B2
binds	B3
binds	B4
binds	B5
binds	B6
binds	B7
binds	B8

Target: human CD112R antigen protein huCD112R-His (Acro Biosysterm, PVG-H52H4) (human) (UniProt Q6DKI7)
Experiment: ELISA, huCD112R-His coated on plate

binding	Binder
binds	B1
binds	B2
binds	B3
binds	B4
binds	B5
binds	B6
binds	B7
binds	B8
